Primary screen of a compound library

The values are deposited in ChEMBL (CHEMBL3988442, “University of Dundee, Small-Polar-MMV Screening Library” (2021)).

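Whole-parasite assay of Trypanosoma brucei over 72 hours; the read-out is not stated. Tested at 30 µM. Direction is inferred from retests: higher values go with stronger inhibition. Values scatter widely below zero; nearly all retest evidence comes from the higher of the two concentrations used. About 64,000 compounds were tested under these conditions; 1.5% (about 940) showed 50% or more at least once.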

Results are given as percent effect. The controls that fix the scale are not given in the record; negative values are as filed. Compounds were drawn at random from those tested, without regard to their results.

Result for Cc1nc(C2CCCN2CC(=O)NCCc2ccc(Cl)cc2)no1 (stereo not drawn) was 39.64%. COCC(=O)N1CCCC(C)(c2nncn2C)C1 (stereo not drawn) gave 8.225%. Cc1nc(-c2ccncc2)ncc1C(C)NC(=O)CN1CCOC1=O (stereo not drawn) gave -16.32%. Cc1nc(CCN)cc(N2CCC(O)(c3ccc(Cl)cc3)CC2)n1 gave -19.17%.

O=C(c1cccnc1O)N(CCO)Cc1cc(Br)ccc1F read -1.622%. For Cc1ccc(S(=O)(=O)NC(=O)CCOCc2ccccc2)s1 the result was -22.08%. Result for Cc1csc(C(=O)NCCn2nc(-n3cncn3)ccc2=O)c1 was -8.738%. With CN1CCC(CNC(=O)c2cccc(NC(N)=O)c2)c2ccccc21 (stereo not drawn) the screen gave -37.2%.

CCN(Cc1cccc(Cl)c1)Cc1nc2c(cnn2C)c(=O)[nH]1 read -14.43%. With O=C(CCC1CCCC1)NCc1nnc2ccccn12 the screen gave -35.05%. Result for Cn1nnnc1SCc1cc2c(cc1Cl)OCO2 was -13.03%. COc1cc(C(C)=O)ccc1OCC(=O)N(C)Cc1cnn(C)c1 gave 24.99%.

COc1ccc(C2CCCN2c2ccc(C#N)cn2)c(OC)c1 (stereo not drawn) read -0.9254%. Cc1ccc(CNCCC(O)(c2nccn2C)C(F)(F)F)o1 (stereo not drawn) gave -26.17%. Cc1noc(C)c1CN(C)c1ncnc2onc(C)c12 gave -13.23%. CC(C)N1CCC(N2CCN(C3CCCCC3)CC2CCO)CC1 (stereo not drawn) read -9.248%.

Result for CN(C)C(=O)c1ccc(C2CCCN2C(=O)c2ccccc2N(C)C)s1 (stereo not drawn) was -0.2699%. Cn1c(=O)oc2cc(S(=O)(=O)N3CCC(c4ccccc4)C3)c(Cl)cc21 (stereo not drawn) read -88.28%. For Cc1ccc(NC(=O)N2CCOC(C)C2)cc1Cl (stereo not drawn) the result was -29.25%. For O=C(c1cc[nH]n1)N1CCCC(c2cc(C(F)(F)F)[nH]n2)C1 (stereo not drawn) the result was 17.05%.

COC(=O)c1ccc(CN(C)C(=O)c2cnsn2)cc1 gave -20.21%. For c1cnn(CCNCc2csc(-c3ccsc3)n2)c1 the result was -18.46%. O=C1CCC2(CCCN(c3ncc(F)cn3)CC2)N1CC1CC1 (stereo not drawn) gave 16.05%. Result for COc1cccc2c1OCC(CNC(=O)CSc1ccccn1)C2 (stereo not drawn) was -232%.

CN1CCN(CC2CC2)C(=O)C12CCN(C(=O)c1cnccn1)CC2 gave -32.37%. CCn1ncnc1CN1CCc2[nH]cnc2C1c1ccccn1 (stereo not drawn) gave -4.213%. CCN(CC)CCCNc1nccc(-c2cn(C)nc2C)n1 read 0.2363%. Result for CCOc1ccc(C(=O)Nc2ccn(CC)n2)cc1 was -50.94%.

Result for [H][C@]12CC[C@](O)(c3ccccc3F)[C@@]1([H])CN(C(=O)c1cc(C3CC3)n[nH]1)C2 was -21.79%. CCNC(=O)NCC1(CN2CCOCC2)CCCCC1 gave 0.8864%. With CS(=O)(=O)NCc1cn2c(n1)CN(Cc1ccoc1)CC2.O=C(O)C(F)(F)F the screen gave -29.97%. Result for CN1CC2(CCN(C(=O)c3cc(-n4cccn4)ccc3Cl)CC2)OC1=O was -2.874%.

With Cc1nc(C)n(CC2CCCN2CC(=O)NC2CCOCC2)n1 (stereo not drawn) the screen gave -8.014%. CCC(C)C(=O)Nc1ccc2oc(=O)n(CCN(C)C)c2c1 (stereo not drawn) gave -15.08%. With Cc1cc(C(=O)N(C)C)nc(C2(C)CCCN2c2ccnc(C)n2)n1 (stereo not drawn) the screen gave -13.18%. For CCOc1ncnc2c1CCN(C(=O)CN(C)C)CC2.O=C(O)C(F)(F)F the result was -37.66%.

CC(C)c1nnc2n1CCN(Cc1ccc3c(c1)OCO3)CC2 read -25.93%. Result for Cc1cnccc1CN1C[C@@H](O)[C@H](Oc2cccc(F)c2)C1 was 10.62%. With CN(Cc1cc2n(n1)CCNC2)Cc1noc(C2CCC2)n1 the screen gave -35.59%. COCCNC(=O)c1ccc2c(=O)n3c(nc2c1)CCCCC3 read -32.73%.

O=C(Nc1ccc(F)cc1)N1CCN(Cc2noc(C3CC3)n2)CC1 gave 11.7%. Cc1ccc(CNC(=O)C2CCN(C(=O)c3ccccc3)CC2)n1C gave -5.786%. Cc1nc2c(c(N3CCC(CN4CCCC4=O)CC3)n1)CCNCC2 gave -54.83%. NC(=O)Cn1cc(NC(=O)N2CCCC2)cn1 gave -62.69%.

For O=C(NCCc1nnc2n1CCC2)NCC1(c2cccc(F)c2)CC1 the result was 8.154%. With [H][C@]12CC[C@]([H])(CN(Cc3nc4ccccc4n3C)C1)N(CCOC)C2 the screen gave -11.15%. O=S(=O)(c1cnccc1N1CCN(CCO)CC1)N1CCOCC1 gave -46.43%. Cc1noc(NCc2ccc(F)cc2)n1 read 55.37%.

With COCC(=O)Nc1cc(S(=O)(=O)C(F)(F)F)ccc1OC the screen gave -5.95%. For COc1ccccc1OCCN(C)c1cc(C)nc(N)n1 the result was -45.22%. Result for COc1ccc(C2=NOC(CC#N)C2)cc1 (stereo not drawn) was -3.039%. For CCOc1cccc(C(=O)N2CCC3(CC2)[C@H](O)C[C@@H]3OC)c1 the result was -0.03304%.

CN(C)C(=O)CN1CCC2(CCN(CC3CC3)CC2)C1=O.O=C(O)C(F)(F)F gave -20.32%.

Some entries from above, unchanged:

| structure | percent effect |
|---|---|
| `CCOc1ncnc2c1CCN(C(=O)CN(C)C)CC2.O=C(O)C(F)(F)F` | -37.66 |
| `Cc1noc(C)c1CN(C)c1ncnc2onc(C)c12` | -13.23 |
| `Cc1csc(C(=O)NCCn2nc(-n3cncn3)ccc2=O)c1` | -8.738 |
| `Cc1ccc(NC(=O)N2CCOC(C)C2)cc1Cl` (stereo not drawn) | -29.25 |
| `O=C(c1cccnc1O)N(CCO)Cc1cc(Br)ccc1F` | -1.622 |